Measurements published in patent US20190365645A1, “DRUG DELIVERY ARTICLES FOR GRAM-LEVEL DOSING” (Massachusetts Institute of Technology, priority 2018, published 2019).
At least one compound was matched to its structure with a doubt left.

Experiment: In vitro drug release from drug-vinylpolysiloxane pills/articles (simulated gastric fluid or water)
Assay type: physicochemical
Details: SGF (isoniazid and rifampicin in water)
Method: Articles with a series of 30 pills were made so that there was 1 gram of doxycycline hyclate in 2 grams of vinylpolysiloxane. Pills were coated with either cellulose acetate butyrate (CAB) or with Eudragit RS PO. A control with no coatings was also made. The articles were immersed in simulated gastric fluid, and the cumulative release of doxycycline hyclate was measured for more than 26 days.
Thickness of coatings was tuned by increasing the spray volume.
Individual pills made of drug-VPS for doxycycline hyclate, isoniazid, ethambutol, pyrazinamide, moxifloxacin were used to evaluate long-term release kinetics in SGF. Pill formulations were incubated in a New Brunswick Innova 44 shaking incubator (Eppendorf) at 37° C. and 200 rpm in 50 mL of SGF for up to 28 days, with solution exchanges at specified time intervals. Drug concentrations were then analyzed using a High-Performance Liquid Chromatography (HPLC). Because of the lack of a validated HPLC method for evaluating isoniazid in SGF, water was used to study differences between isoniazid formulations. Three intact rifampicin devices were fabricated by loading 2 grams of drug into VPS pills. […] The drug concentrations samples were then measured on an Infinite M200Pro (Tecan) reader (absorbance, 475 nm). […]

COc1c(N2C[C@@H]3CCCN[C@@H]3C2)c(F)cc2c(=O)c(C(=O)O)cn(C3CC3)c12 [moxifloxacin]
in vitro release from drug-VPS pills: able to release

CO[C@H]1/C=C/O[C@@]2(C)Oc3c(C)c(O)c4c(O)c(c(/C=N/N5CCN(C)CC5)c(O)c4c3C2=O)NC(=O)/C(C)=C\C=C\[C@H](C)[C@H](O)[C@@H](C)[C@@H](O)[C@@H](C)[C@H](OC(C)=O)[C@@H]1C [rifampicin]
in vitro release from drug-VPS pills: able to release
